From PubChem BioAssay AID1671190 (National Center for Advancing Translational Sciences (NCATS), 2021)
Where “and” joins values, the source holds several entries; their conditions need not be identical. Equal values may be shown once. Screen size: about 580,000 compounds; about 6,100 (1.1%) were called active. Inconclusive means that the source gave no clear call. Such entries were picked first, then a sample of the others. Calls follow the shape of the dose curve; as a rule, active = well fitted inhibition curve with a large enough effect; inconclusive = small, poorly fitted or top-dose-only effect, or another doubt; inactive = no such curve, though single readings can be large or run the other way. A potency beside an inconclusive call is a rough fit, not a confirmed value.

By UniProt entry, the sequences of proteins in these tests, tags left out. Where a name states a change or a piece, a line headed by the entry shows the natural chain unless it says otherwise.
UniProt P18054: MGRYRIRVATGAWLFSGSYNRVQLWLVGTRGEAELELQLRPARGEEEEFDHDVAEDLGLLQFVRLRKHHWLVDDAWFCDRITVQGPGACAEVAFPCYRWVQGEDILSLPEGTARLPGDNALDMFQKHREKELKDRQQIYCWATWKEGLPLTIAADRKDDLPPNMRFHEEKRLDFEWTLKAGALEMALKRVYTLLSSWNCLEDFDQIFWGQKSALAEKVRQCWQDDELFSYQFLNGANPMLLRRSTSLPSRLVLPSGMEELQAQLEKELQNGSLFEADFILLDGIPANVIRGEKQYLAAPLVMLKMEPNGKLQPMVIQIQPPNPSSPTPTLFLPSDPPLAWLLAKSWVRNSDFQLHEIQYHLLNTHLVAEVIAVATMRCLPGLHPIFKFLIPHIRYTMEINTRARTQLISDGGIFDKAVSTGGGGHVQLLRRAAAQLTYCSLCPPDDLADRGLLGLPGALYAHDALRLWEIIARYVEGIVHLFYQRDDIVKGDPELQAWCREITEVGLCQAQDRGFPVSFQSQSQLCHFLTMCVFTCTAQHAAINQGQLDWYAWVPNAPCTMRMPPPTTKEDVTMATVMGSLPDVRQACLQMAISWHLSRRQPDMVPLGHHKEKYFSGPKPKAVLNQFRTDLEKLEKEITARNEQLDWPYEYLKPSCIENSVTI

target: Polyunsaturated fatty acid lipoxygenase ALOX12 (Homo sapiens) (UniProt P18054); experiment: Primary qHTS assay for inhibitors of human arachidonate 12S-lipoxygenase (ALOX12): Round 2; details: purified 12hLO, xylenol orange hydroperoxide absorbance; activity change, negative = inhibition: at 108 µM (top of the series) unless noted
Outline: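 Purified human 12hLO (150 nM final) in 25 mM Hepes, 0.01% Triton X-100, pH 7.0 was preincubated 15 min at room temperature with compound. Then 40 uM arachidonic acid was added, 30 min. Hydroperoxide was read by Fe-XO absorbance ratio 573/405 nm.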
% is scaled to controls: 0 for no effect and ±100 for the full control effect; potency is read from the fitted curve at half-maximal effect.

Row | SMILES | Potency | activity change, negative = inhibition
1 | C=CCOc1cccc(CNCc2cccnc2)c1 | inconclusive: 17.8 µM [inhibitor, partial curve, poor fit] | 
2 | CS(=O)(=O)Cc1cccc(C(=O)Oc2ccc(Cl)c(Cl)c2)c1 | inconclusive: 1.78 µM [inhibitor, full curve, poor fit] | 
3 | FC(F)(F)CN1CCN(c2nc(-c3cccnc3)nc3ccccc23)CC1 | inconclusive: 100 µM [inhibitor, single point] | 
4 | Cc1ccc(-n2nc3ccc(NC(=O)c4cccc([N+](=O)[O-])c4C)cc3n2)cc1 |  | inactive: -0.822%
5 | COc1cccc(/C=C/c2nc(C#N)c(N3CCCCCC3)o2)c1 | inconclusive: 79.4 µM [inhibitor, partial curve, poor fit] | 
6 | C=CCNC(=O)COc1ncnc2ccc(Br)cc12 |  | inactive: 3.81%
7 | Cc1cc(C)cc(NC(=O)c2ccc(CSc3nnnn3C)cc2)c1 |  | inactive: 0.239%
8 | O=C(NNC(=S)NC(=O)C(c1ccccc1)c1ccccc1)c1ccc(NC(=O)c2ccccc2)cc1 | inconclusive: 56.2 µM [inhibitor, partial curve, poor fit] | 
9 | CCOC(=O)N(C)C[C@H]1OCc2cn(nn2)CCCC(=O)N([C@H](C)CO)C[C@@H]1C |  | inactive: -0.45%
10 | COc1cccc(C(=O)NC(=S)Nc2ccc3[nH]c(=O)[nH]c3c2)c1 | inconclusive: 2.82 µM [inhibitor, full curve, poor fit] | 
11 | COc1ccc(CN2CCCC(C(=O)N3CCCC3)C2)c(OC)c1OC (stereo not given) | inconclusive: 0.562 µM [inhibitor, partial curve, poor fit] | 
12 | Cc1cc(S(=O)(=O)Nc2ccc(N(C)C)cc2)c(C)s1 | inconclusive: 112 µM [inhibitor, single point] | 
13 | COc1ccc(-c2noc(CCC(=O)Nc3ccn(C)n3)n2)cc1OC |  | inactive: 8.24%
14 | CNCc1ccccn1 | inconclusive: 0.13 µM [inhibitor, full curve] | 
15 | N#Cc1ccccc1COC(=O)c1cccc(OC(F)F)c1 |  | inactive: -25.3%
16 | Oc1ccc(-c2nc(C3CC3)nc3c2CCN(Cc2ccc(F)cc2)CC3)cc1 |  | inactive: -9.53%
17 | O=C(Nc1cccc(C(F)(F)F)c1)C1CCN(S(=O)(=O)c2cccc3nsnc23)CC1 |  | inactive: -21.5%
18 | COc1ccc(-c2cnc(C)o2)cc1S(=O)(=O)Nc1cccc(C(F)(F)F)c1 | inactive and inconclusive: 63.1 µM [inhibitor, partial curve, poor fit] | 
19 | COC(=O)C1=C(C(=O)OC)C(c2cc(Br)ccc2O)c2sc(=O)[nH]c2S1 (stereo not given) | active: 44.7 µM | 
20 | COc1ccc(C2=CC(=O)N(CCC(N)=O)C2)cc1 |  | inactive: -1.1%
21 | CCCOC(=O)Nc1ccccc1N=C1CCC/C1=C\c1ccccc1 | inconclusive: 15.8 µM [inhibitor, full curve, poor fit] | 
22 | CC(=O)Nc1ccc(S(=O)(=O)NC2=C(N3CCN(c4ccc(F)cc4)CC3)C(=O)c3ccccc3C2=O)cc1 |  | inactive: -11.1%
23 | Cc1oc2cc(OCC(=O)NCC(=O)O)ccc2c(=O)c1-c1ccc(Cl)cc1 |  | inactive: 8.55%
24 | Cc1ccc(NC(=O)Nc2cccc(-c3ccc(N4CCOCC4)nn3)c2)cc1F | inconclusive: 7.08 µM [inhibitor, full curve] | 

Row | SMILES | Potency | activity change, negative = inhibition
25 | O=[N+]([O-])c1cc([N+](=O)[O-])c2nonc2c1Nc1ccccc1O | inconclusive: 35.5 µM [inhibitor, partial curve, poor fit] | 
26 | CCOC(=O)c1nc(N)sc1C(=O)OCC | inconclusive: 39.8 µM [inhibitor, partial curve, poor fit] | 
27 | COC(=O)N1CCc2c(sc(NC(=O)C3=COCCO3)c2C#N)C1 | inconclusive: 20 µM [inhibitor, full curve, poor fit] | 
28 | CCC(C(=O)Nc1ccc(C(F)(F)F)cc1)n1cnc2ccccc2c1=O (stereo not given) | inconclusive: 7.08 µM [inhibitor, full curve, poor fit] | 
29 | Cn1cc(CC(=O)N2CCCc3ncc(C(=O)NCc4cccs4)cc32)c2ccccc21 |  | inactive: -15.1%
30 | CC1=C(C(=O)N2CCOCC2)CC(CC(=O)NCc2ccco2)C(=O)N1Cc1ccc(F)cc1 (stereo not given) | inconclusive: 126 µM [inhibitor, single point] | 
31 | Cc1cn(CC(=O)NCCc2ccccn2)c(=O)[nH]c1=O |  | inactive: 1.05%
32 | CCc1ccc(N2CC(C(=O)OCc3csc(CC(=O)Nc4ccccc4C)n3)CC2=O)cc1 (stereo not given) |  | inactive: 102%
33 | CCOc1ccc(/C=C(/C#N)C(=O)c2ccccc2)cc1OC | inconclusive: 44.7 µM [inhibitor, partial curve, poor fit] | 
34 | NC(c1ccccc1)c1ccncc1 (stereo not given) | inconclusive: 89.1 µM [inhibitor, single point] | 
35 | O=C(NC(NCc1ccccc1)C(Cl)(Cl)Cl)c1cccnc1 (stereo not given) |  | inactive: -11.6%
36 | O=C(CN1CCCC1c1ccccc1)Nc1ccc(F)cc1 (stereo not given) | inconclusive: 89.1 µM [inhibitor, single point] | 
37 | COc1ccc(OC)c(CCNC(=O)CSc2ccsc2[N+](=O)[O-])c1 |  | inactive: -14.4%
38 | O=C(C1CCCC1)N1CCOc2ccc(CN3CCc4ccccc4C3)cc2C1 |  | inactive: 147%
39 | COC(=O)CCN1CCC2CC1c1cc(Cl)ccc12 (stereo not given) | inconclusive: 31.6 µM [inhibitor, single point] | 
40 | CCCNC(=O)c1cccc(CNCc2ccc(F)cc2)c1 | inconclusive: 50.1 µM [inhibitor, partial curve, poor fit] | 
41 | O=S(=O)(NC(=NCc1ccccc1)c1ccccc1)c1ccc(Br)cc1 | inconclusive: 2 µM [inhibitor, full curve, poor fit] | 
42 | CC(C(=O)Nc1ccccc1OC(F)F)N(C)CC(=O)Nc1ccc(F)cc1 (stereo not given) |  | inactive: 15%
43 | COc1ccc(-c2c3c(=O)n(C)c(=O)n(C)c3cn2N2CCOCC2)cc1 | inconclusive: 44.7 µM [inhibitor, full curve, poor fit] | 
44 | CCN1CCN(C(=O)c2cc(-c3ccc(OC)cc3)nc3ccccc23)CC1 | inconclusive: 35.5 µM [inhibitor, partial curve, poor fit] | 
45 | O=C1CCCCC1C1(O)C(=O)Nc2ccccc21 (stereo not given) | inconclusive: 3.55 µM [inhibitor, full curve, poor fit] | 
46 | O=C(COC(=O)Cn1cnc2ccccc2c1=O)Nc1cc(Cl)ccc1[N+](=O)[O-] | inconclusive: 63.1 µM [inhibitor, partial curve, poor fit] | 
47 | COC(=O)c1ccc(NC(=O)c2c(OC)cc(=O)n3c2CCCC3)cc1 | inconclusive: 79.4 µM [inhibitor, single point] | 
48 | CCO[C@H]1OC(C(=O)N2CCN(Cc3ccccc3)CC2)=C[C@@H](c2cn(C(C)=O)c3ccccc23)[C@@H]1CCCO | inconclusive: 100 µM [inhibitor, partial curve, poor fit] | 

Part of the list above in order of molecular weight, low to high.
Row | SMILES | Potency | activity change, negative = inhibition
44 | CCN1CCN(C(=O)c2cc(-c3ccc(OC)cc3)nc3ccccc23)CC1 | inconclusive: 35.5 µM [inhibitor, partial curve, poor fit] | 
37 | COc1ccc(OC)c(CCNC(=O)CSc2ccsc2[N+](=O)[O-])c1 |  | inactive: -14.4%
24 | Cc1ccc(NC(=O)Nc2cccc(-c3ccc(N4CCOCC4)nn3)c2)cc1F | inconclusive: 7.08 µM [inhibitor, full curve] | 

More records follow.

Row | SMILES | Potency | activity change, negative = inhibition
49 | NC(=O)C1CCN(C2=C(NS(=O)(=O)c3ccccc3)C(=O)c3ccccc3C2=O)CC1 |  | inactive: -20.9%
50 | CCOC(=O)/C(C#N)=C1/C=Nc2ccccc2N1 | inconclusive: 44.7 µM [inhibitor, partial curve] | 
51 | Cc1nc2n(n1)C(C(=O)Nc1ccccc1C)CC(=O)N2 (stereo not given) |  | inactive: 8.32%
52 | O=C(NCCC1=CCCCC1)c1cc(S(=O)(=O)N2CCOCC2)ccc1F |  | inactive: 10.2%
53 | Cc1cc(C)c(S(=O)(=O)Nc2ccc(Cl)cn2)cc1Br | inconclusive: 39.8 µM [inhibitor, partial curve, poor fit] | 
54 | CCc1nc([C@H]2CN(C)C[C@@H]2C(=O)NCC23CCCN2CCC3)c(C)[nH]1 |  | inactive: 5.22%
55 | O=C(NCCNc1ncccc1C(F)(F)F)Nc1ccc(F)cc1F | inconclusive: 89.1 µM [inhibitor, single point] | 
56 | O=C1NC(C(=O)Nc2ccc3c(c2)OCCO3)Cn2cccc21 (stereo not given) | inconclusive: 7.94 µM [inhibitor, full curve, poor fit] | 
57 | CCCN1CCC(N2CCN(c3ccc([N+](=O)[O-])cc3)CC2)CC1 | active: 0.891 µM | 
58 | c1ccc(COCCCc2cnc[nH]2)cc1 | inconclusive: 12.6 µM [inhibitor, full curve, poor fit] | 
59 | COC(=O)c1sc(=S)n(-c2c(C)cccc2C)c1N | inconclusive: 0.251 µM [inhibitor, full curve, poor fit] | 
60 | CN1CC2(CCCN(CC3CC3)C2)c2cc(C(=O)N3CC(O)C3)ccc21 (stereo not given) | inconclusive: 141 µM [inhibitor, partial curve, poor fit] | 
61 | O=C(CN1C(=O)c2ccccc2C1=O)OCC(=O)N1CCCCC1 |  | inactive: 1.26%
62 | Cc1ccc(NS(=O)(=O)c2ccc3c(c2)CC(=O)N3)cc1F | inconclusive: 17.8 µM [inhibitor, single point] | 
63 | c1ccc2sc([C@H]3CCN(C4CCC4)C3)nc2c1 | inconclusive: 22.4 µM [inhibitor, full curve, poor fit] | 
64 | CC(C)c1ccc(NC(=S)Nc2cccc3ccccc23)cc1 | inconclusive: 39.8 µM [inhibitor, partial curve, poor fit] | 
65 | CCC(CC)c1nnc(NC(=O)CC(C)c2ccccc2)s1 (stereo not given) |  | inactive: 0%
66 | COCCn1cnnc1SCc1cccc(Cl)c1 | inconclusive: 35.5 µM [inhibitor, partial curve, poor fit] | 
67 | COc1ccc(-c2csc(NC(=O)Nc3ccccc3)n2)cc1 | inconclusive: 112 µM [inhibitor, single point] | 
68 | CCOC(=O)c1[nH]c2ccc(F)cc2c1NC(=O)C(C)N1CCc2cc(OC)c(OC)cc2C1 (stereo not given) | inconclusive: 112 µM [inhibitor, single point] | 
69 | CCC(CC)NC(=O)[C@H]1CCC[C@H]1NC(=O)c1ccc(OC)cc1 |  | inactive: 48.8%
70 | Nc1nc(C(c2ccccc2)c2ccccc2)cs1 | inconclusive: 100 µM [inhibitor, partial curve, poor fit] | 

Two of the compounds above, with tabs:
Row	SMILES	Potency	activity change, negative = inhibition
61	O=C(CN1C(=O)c2ccccc2C1=O)OCC(=O)N1CCCCC1		inactive: 1.26%
62	Cc1ccc(NS(=O)(=O)c2ccc3c(c2)CC(=O)N3)cc1F	inconclusive: 17.8 µM [inhibitor, single point]	
